This note sets out measurements from publication PMC4692422.

The chains behind the UniProt entries cited, without tags or fusion partners. Where a name states a change or a piece, a line headed by the entry shows the natural chain unless it says otherwise. A line that says so, or that is headed by a name, gives the form on record, which may keep a tag or linker.
UniProt P42230: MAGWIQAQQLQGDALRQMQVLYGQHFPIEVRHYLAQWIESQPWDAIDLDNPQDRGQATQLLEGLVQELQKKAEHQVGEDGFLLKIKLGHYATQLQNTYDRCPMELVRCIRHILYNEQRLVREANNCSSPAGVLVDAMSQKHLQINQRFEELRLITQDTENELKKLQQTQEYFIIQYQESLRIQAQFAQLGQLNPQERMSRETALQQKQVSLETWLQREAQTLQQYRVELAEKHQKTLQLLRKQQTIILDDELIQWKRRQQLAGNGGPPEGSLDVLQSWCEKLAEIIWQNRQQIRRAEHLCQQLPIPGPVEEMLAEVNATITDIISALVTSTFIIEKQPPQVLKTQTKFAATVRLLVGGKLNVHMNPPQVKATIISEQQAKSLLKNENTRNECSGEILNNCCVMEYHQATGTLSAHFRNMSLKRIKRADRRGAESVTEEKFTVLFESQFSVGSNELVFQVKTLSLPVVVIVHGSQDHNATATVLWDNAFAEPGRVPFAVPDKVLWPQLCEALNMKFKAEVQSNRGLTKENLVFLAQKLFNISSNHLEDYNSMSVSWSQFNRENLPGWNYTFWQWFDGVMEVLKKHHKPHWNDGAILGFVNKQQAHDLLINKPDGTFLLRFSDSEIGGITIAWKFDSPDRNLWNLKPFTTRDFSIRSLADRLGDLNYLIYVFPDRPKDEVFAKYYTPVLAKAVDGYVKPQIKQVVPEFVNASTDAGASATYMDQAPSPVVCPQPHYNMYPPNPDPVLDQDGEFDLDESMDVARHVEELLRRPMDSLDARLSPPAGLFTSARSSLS
Flag-tagged STAT5 phosphomimic point mutant Y694 (Tyr to Asp) (P42230, form named): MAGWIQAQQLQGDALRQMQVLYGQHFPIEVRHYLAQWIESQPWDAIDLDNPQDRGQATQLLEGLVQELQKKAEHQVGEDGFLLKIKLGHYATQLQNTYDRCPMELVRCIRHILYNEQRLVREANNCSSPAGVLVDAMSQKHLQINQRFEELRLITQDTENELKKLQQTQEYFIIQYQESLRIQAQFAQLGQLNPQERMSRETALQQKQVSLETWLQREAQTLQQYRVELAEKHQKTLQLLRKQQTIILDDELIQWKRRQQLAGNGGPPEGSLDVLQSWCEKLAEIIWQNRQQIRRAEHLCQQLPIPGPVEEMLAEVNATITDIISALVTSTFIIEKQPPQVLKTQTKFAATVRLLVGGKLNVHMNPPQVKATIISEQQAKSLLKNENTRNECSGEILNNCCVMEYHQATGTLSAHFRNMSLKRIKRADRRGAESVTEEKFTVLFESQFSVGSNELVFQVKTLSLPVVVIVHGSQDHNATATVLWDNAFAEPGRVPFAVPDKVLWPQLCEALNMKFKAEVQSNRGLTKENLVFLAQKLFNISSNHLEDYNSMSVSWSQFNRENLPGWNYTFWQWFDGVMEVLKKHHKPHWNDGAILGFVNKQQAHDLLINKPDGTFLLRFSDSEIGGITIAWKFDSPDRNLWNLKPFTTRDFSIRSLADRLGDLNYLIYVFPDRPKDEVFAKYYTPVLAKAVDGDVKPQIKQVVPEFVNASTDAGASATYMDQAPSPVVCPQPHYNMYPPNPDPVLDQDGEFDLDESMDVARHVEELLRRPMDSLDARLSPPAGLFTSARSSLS
Flag-tagged STAT5 phosphomimic point mutant Y694 (Tyr to Glu) (P42230, form named): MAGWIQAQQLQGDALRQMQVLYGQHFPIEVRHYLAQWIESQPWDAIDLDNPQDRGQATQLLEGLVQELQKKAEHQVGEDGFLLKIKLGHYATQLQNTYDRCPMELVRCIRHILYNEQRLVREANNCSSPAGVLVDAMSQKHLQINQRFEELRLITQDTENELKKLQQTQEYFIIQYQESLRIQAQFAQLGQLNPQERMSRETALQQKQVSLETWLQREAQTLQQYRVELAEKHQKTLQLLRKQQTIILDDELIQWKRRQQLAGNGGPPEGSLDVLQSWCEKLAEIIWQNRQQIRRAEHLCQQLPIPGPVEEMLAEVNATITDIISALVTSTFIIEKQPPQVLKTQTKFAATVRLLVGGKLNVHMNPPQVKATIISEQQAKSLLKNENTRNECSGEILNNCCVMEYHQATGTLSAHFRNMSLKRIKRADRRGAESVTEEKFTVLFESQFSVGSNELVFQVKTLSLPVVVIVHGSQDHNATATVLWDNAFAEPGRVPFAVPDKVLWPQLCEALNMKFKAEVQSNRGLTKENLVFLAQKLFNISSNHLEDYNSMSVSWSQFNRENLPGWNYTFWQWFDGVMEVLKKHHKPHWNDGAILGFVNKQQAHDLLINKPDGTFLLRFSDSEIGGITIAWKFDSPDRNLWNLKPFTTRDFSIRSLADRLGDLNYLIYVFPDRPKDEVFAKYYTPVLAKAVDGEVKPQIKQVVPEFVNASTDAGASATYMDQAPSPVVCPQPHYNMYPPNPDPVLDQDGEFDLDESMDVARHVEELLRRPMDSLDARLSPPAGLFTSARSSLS
Flag-tagged STAT5 phosphorylation-defective point mutant Y694 (Tyr to Phe) (P42230, form named): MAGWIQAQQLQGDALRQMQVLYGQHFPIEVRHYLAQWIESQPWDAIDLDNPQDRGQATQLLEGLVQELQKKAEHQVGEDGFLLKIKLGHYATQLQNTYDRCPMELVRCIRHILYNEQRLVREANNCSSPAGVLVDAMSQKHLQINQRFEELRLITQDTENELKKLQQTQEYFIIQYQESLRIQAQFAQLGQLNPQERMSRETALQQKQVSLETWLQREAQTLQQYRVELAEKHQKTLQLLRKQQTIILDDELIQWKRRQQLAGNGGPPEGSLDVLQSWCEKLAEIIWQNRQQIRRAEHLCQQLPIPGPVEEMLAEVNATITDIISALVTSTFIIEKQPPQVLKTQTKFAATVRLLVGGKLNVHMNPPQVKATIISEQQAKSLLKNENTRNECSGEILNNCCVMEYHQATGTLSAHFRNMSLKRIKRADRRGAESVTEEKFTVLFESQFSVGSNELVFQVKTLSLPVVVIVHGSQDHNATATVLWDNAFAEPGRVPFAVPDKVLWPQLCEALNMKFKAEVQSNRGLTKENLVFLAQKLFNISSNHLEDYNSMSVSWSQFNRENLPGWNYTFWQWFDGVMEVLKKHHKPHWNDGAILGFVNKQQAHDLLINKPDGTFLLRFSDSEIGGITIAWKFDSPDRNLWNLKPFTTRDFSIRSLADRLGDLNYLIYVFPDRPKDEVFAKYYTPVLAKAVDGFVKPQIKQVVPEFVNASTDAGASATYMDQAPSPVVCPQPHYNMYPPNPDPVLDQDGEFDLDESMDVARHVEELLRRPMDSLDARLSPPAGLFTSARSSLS

Substitutions are numbered along the chain they refer to. Numbers in names are those of the source. No constants are given. Whether binding was seen depends on the method and setting. Binding seen in cells or lysates may run through a third protein. Some results given as binding are weak or reduced against the parent protein; the word gives no strength.

Experiment in all cases: co-IP; HEK-293T co-transfected with STAT5 and DUSP4 plasmids; 10 ng/ml hIFNbeta and 25 uM pervanadate for 30 m before lysis; SDS-free RIPA buffer (50 mM Tris-HCl, 0.25% sodium deoxycholate, 150 mM NaCl, 0.1% NP-40, 1 mM EDTA); Flag-STAT5 precipitated on Anti-Flag M2 affinity gel at 4°C for 3 h; DUSP4 detected by western blot
(In general: A western blot detects proteins with antibodies after separation by electrophoresis.)

The target of assay [1] is Flag-tagged WT STAT5 (mouse STAT5a) (mouse) (UniProt P42230).
The target of assay [2] is Flag-tagged STAT5 phosphomimic point mutant Y694 (Tyr to Asp) (mouse) (UniProt P42230).
Assay [3] deals with Flag-tagged STAT5 phosphomimic point mutant Y694 (Tyr to Glu) (mouse) (UniProt P42230).
Assay [4] deals with Flag-tagged STAT5 phosphorylation-defective point mutant Y694 (Tyr to Phe) (mouse) (UniProt P42230).

B1: WT DUSP4 (mouse dual-specificity phosphatase 4) (enzyme, UniProt Q8BFV3 1-398)
chain: MVTMEELREMDCSVLKRLMNRDENGGGGSAGGNGSGSHGALGLLSGGKCLLLDCRPFLAHSAGYIRGSVNVRCNTIVRRRAKGSVSLEQILPAEEEVRARLRSGLYSAVIVYDERSPRAESLREDSTVSLVVQALRRNAERTDICLLKGGYERFSSEYPEFCSKTKALAAIPPPVPPSTNESLDLGCSSCGTPLHDQGGPVEILPFLYLGSAYHAARRDMLDALGITALLNVSSDCPNHFEGHYQYKCIPVEDNHKADISSWFMEAIEYIDAVKDCRGRVLVHCQAGISRSATICLAYLMMKKRVRLEEAFEFVKQRRSIISPNFSFMGQLLQFESQVLTTSCAAEAASPSGPLRERGKATPTPTSQFVFSFPVSVGVHAAPSNLPYLHSPITTSPSC
With B1, in assay [1], the binding result is “binds”.

B2: DUSP4-PD (phosphatase-dead mutant DUSP4, C284S) (enzyme, UniProt Q8BFV3 1-398)
chain: B1 chain with C284S
Consider B2, for which the binding result in assay [2], in assay [1], in assay [3] and in assay [4] was “binds” each time.
